Consider 1 substance from publication PMC4873647.

The chains behind the UniProt entries cited, without tags or fusion partners. Where a name states a change or a piece, a line headed by the entry shows the natural chain unless it says otherwise.
UniProt P49023, whole entry: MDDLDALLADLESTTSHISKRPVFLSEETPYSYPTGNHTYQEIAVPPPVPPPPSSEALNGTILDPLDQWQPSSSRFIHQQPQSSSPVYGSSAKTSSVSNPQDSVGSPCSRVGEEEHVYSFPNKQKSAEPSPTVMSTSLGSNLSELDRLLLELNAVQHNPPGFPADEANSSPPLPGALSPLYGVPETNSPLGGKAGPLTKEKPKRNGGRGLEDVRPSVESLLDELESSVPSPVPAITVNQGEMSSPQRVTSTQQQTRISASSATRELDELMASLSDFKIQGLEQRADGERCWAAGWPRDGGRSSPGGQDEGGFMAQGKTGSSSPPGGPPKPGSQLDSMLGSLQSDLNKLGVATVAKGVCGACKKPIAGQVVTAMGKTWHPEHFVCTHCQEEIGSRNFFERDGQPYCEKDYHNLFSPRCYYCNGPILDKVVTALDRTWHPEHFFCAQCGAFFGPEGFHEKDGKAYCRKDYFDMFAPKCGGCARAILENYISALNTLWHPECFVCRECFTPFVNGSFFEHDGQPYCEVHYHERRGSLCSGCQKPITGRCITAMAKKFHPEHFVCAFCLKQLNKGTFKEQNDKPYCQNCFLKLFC
UniProt P24385, whole entry: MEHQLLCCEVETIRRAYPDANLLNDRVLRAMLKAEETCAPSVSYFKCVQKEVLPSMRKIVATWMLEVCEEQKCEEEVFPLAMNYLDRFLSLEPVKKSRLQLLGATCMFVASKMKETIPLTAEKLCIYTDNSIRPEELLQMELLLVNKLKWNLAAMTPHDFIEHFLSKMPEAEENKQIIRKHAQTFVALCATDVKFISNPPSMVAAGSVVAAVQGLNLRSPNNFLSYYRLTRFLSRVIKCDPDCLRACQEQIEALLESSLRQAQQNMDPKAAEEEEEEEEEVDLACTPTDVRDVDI

These are yes or no findings as the source states them, for the method shown. Binding seen in cells or lysates may run through a third protein. Some results given as binding are weak or reduced against the parent protein; the word gives no strength.

For the assay, the target named is GFP-tagged Pxn, wild type (in HEK293T cells) (human) (UniProt P49023). Put plainly: co-IP; HEK293T cells co-transfected with HA-tagged Ccnd1 and wild-type or mutant GFP-tagged Pxn (Supplementary Fig. 1B).

For the substance “hemagglutinin (HA)-tagged Ccnd1 (in HEK293T cells) (from UniProt P24385 1-295)”, the binding entry was “binds”.
